Reference: ChEMBL document CHEMBL4699440, “Comprehensive review on the anti-bacterial activity of 1,2,3-triazole hybrids” (Eur J Med Chem, 2019)

Key:
[1] = tested on: Escherichia coli; assay: Antibacterial activity against Escherichia coli RCMB-010052 assessed as diameter of inhibition zone at 5 mg/ml by diffusion technique; assay type: functional
[2] = tested on: Pseudomonas aeruginosa; assay: Antibacterial activity against Pseudomonas aeruginosa RCMB-010043 assessed as diameter of inhibition zone at 5 mg/ml by diffusion technique; assay type: functional

GENTAMICIN
inhibition zone (IZ) [1]: 19.9 mm | inhibition zone (IZ) [2]: 17.3 mm
